This passage reports binding results from paper PMC3314686.

By UniProt entry, the sequences of proteins in these tests, tags left out. Where a name states a change or a piece, a line headed by the entry shows the natural chain unless it says otherwise.
UniProt O95166: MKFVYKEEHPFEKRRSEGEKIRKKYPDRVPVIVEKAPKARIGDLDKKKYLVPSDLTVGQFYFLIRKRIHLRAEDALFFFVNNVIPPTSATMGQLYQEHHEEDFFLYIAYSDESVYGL
UniProt P60520: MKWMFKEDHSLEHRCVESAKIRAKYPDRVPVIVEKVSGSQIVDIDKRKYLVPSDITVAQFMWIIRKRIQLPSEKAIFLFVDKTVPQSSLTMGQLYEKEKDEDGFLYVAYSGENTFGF
UniProt Q96A56: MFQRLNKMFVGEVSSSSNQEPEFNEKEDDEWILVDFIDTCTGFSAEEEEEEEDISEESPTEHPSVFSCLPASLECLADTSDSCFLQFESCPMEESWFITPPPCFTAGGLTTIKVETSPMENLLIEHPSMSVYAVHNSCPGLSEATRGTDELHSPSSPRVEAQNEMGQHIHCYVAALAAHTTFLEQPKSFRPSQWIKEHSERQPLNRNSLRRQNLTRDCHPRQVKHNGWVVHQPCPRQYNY
UniProt Q8IXH6: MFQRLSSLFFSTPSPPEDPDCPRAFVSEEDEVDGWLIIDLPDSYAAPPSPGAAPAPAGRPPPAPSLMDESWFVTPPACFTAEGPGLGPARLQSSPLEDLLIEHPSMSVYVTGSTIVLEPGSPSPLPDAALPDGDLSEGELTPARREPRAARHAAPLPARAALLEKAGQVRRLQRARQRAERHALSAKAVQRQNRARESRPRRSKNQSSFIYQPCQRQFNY

Some targets named below: GST-GABARAP (human) (UniProt O95166); GST-GABARAP-L2 (human) (UniProt P60520); GST-LC3A (human) (UniProt Q9H492).
Holding throughout (experiment): pull-down; GST fusion proteins purified and immobilized on glutathione-sepharose beads; 35S-labelled in vitro translated GFP-tagged proteins diluted 20x in NET-N buffer (20 mM Tris-HCl pH 8.0, 100 mM NaCl, 1 mM EDTA, 0.5% Nonidet P-40), pre-cleared, incubated at least 2 h at 4°C; five washes; SDS-PAGE and autoradiography; only the target purified

No constants are given. Whether binding was seen depends on the method and setting. Binding seen in cells or lysates may run through a third protein. Some entries that bind do so weakly or less than the wild type.

For “GFP-TP53INP1 (human TP53INP1 isoform a, full length) (from UniProt Q96A56-1 1-240)”, the binding result in the assay with GST-GABARAP (human), with GST-GABARAP-L2 (human) and with GST-LC3A (human) was “binds” each time.

Take “GFP-DOR (human DOR/TP53INP2, full length) (from UniProt Q8IXH6 1-220)”: the binding entry with GST-GABARAP (human), with GST-GABARAP-L2 (human) and with GST-LC3A (human) was “binds” throughout.

Take “GFP-DOR (aa 27-46), LIR peptide of DOR (from UniProt Q8IXH6 27-46) (domain or fragment)”: the binding result in the assay with GST-GABARAP (human) is reported as “binds”; with GST-GABARAP-L2 (human), “binds”; in the assay with GST-LC3A (human) it was “binds weakly”.

As to “GFP-TP53INP1 (aa 23-42), LIR peptide of TP53INP1 (from UniProt Q96A56 23-42) (domain or fragment)”, the binding entry with GST-GABARAP (human), with GST-GABARAP-L2 (human) and with GST-LC3A (human) was “binds” in each case.
